Data as given in patent publication US11802107B2, “Compounds and methods of use” (Signum Biosciences, Inc., priority 2017, dated 2023).
Counter-ions that a name gives are not always drawn.

Assays:
[1] = test system: P. acnes (ATCC 6919) biofilms; test: P. acnes biofilm eradication (MBEC), crystal violet; format: cell-based, Propionibacterium acnes; conditions: 24 hours, ≥80% eradication vs vehicle, HCl
Experimental: P. acnes (ATCC® 6919™) was cultured as described above. Bacteria biofilms were established by seeding P. acnes cultures in 96-well plates and incubating for 24 hours without agitation. Later, biofilms were incubated with test materials for 24 hours. Remaining biofilms were washed and stained with crystal violet. […] The absorbance was measured at 595 nm in a microplate reader. […] Results from disk diffusion susceptibility testing (Kirby-Bauer Method) after 72 hours incubation were also obtained.

IL-8 = test: P. acnes-induced IL-8 protein on human PBMCs (ELISA); format: cell-based; conditions: PBMCs + live P. acnes 1:1, test material 30 PM, 24 hours
Experimental: (§1) Cryopreserved human Peripheral Blood Mononuclear cells (PBMCs) from healthy adult donors were obtained from Zen Bio, Inc (Cat No. SER-PBMC-F). Cells were cultured in 12-well plates with lymphocyte media (Cat No. LYMPH-1) and incubated with test materials ([…]) and live P. acnes (ATCC® 6919TM) at 1:1 PBMC: P. acnes bacteria ratio for 24 hours at 37° C. and 5% CO2. After incubation, cell media supernatants were harvested and used to measure pro-inflammatory cytokine levels (IL-8, TNF-α, IL-1b, IL-17) using ELISA kits (BD Biosciences® #557966, #555212, #555244; R&D Systems® #DY317). Total RNA was extracted from cells using the RNAqueous® kit (Ambion®; Cat No. 1912) and cDNA was obtained using the High Capacity RNA-to-cDNA kit (Applied Biosystems®; Cat No. 4387406). Quantitative PCR (qPCR) was performed using the TaqMan® Fast Advanced Master Mix (Applied Biosystems®; Cat No. 4444556) and specific TaqMan®-probes human gene primers CXCL8 (IL-8), IL1B (IL-1b), TNF (TNF-α), IL17A (IL-17A) and GAPDH to calculate the relative gene fold expression change per treatment. Gene expression analysis was performed using the comparative Ct method (also known as the 2-[delta][delta]Ct) approach by comparing the Ct values of P. acnes-only treated cells with the untreated samples and normalized to GAPDH gene expression as endogenous housekeeping gene. […]

IL-1b = test: P. acnes-induced IL-1b protein on human PBMCs (ELISA); format: cell-based; conditions: PBMC, PBMCs + live P. acnes 1:1, test material 30 PM, 24 hours
Experimental: as §1

IL-17 = test: P. acnes-induced IL-17 protein on human PBMCs (ELISA); format: cell-based; conditions: PBMC, PBMCs + live P. acnes 1:1, test material 30 PM, 24 hours
Experimental: as §1

TNF-α = test: P. acnes-induced TNF-α protein on human PBMCs (ELISA); format: cell-based; conditions: PBMCs + live P. acnes 1:1, test material 30 PM, 24 hours
Experimental: as §1

CXCL8 (IL-8) = test: P. acnes-induced IL-8 gene on human PBMCs (qPCR); format: cell-based; conditions: PBMC, PBMCs + live P. acnes 1:1, test material 30 PM, 24 hours
Experimental: as §1

TNF (TNF-α) = test: P. acnes-induced TNF-α gene on human PBMCs (qPCR); format: cell-based; conditions: PBMC, PBMCs + live P. acnes 1:1, test material 30 PM, 24 hours, read-out: TNFa-Gene % inhibition
Experimental: as §1

IL1B (IL-1b) = test: P. acnes-induced IL-1b gene on human PBMCs (qPCR); format: cell-based; conditions: PBMC, PBMCs + live P. acnes 1:1, test material 30 PM, 24 hours
Experimental: as §1

IL17A (IL-17A) = test: P. acnes-induced IL-17 gene on human PBMCs (qPCR); format: cell-based; conditions: PBMC, PBMCs + live P. acnes 1:1, test material 30 PM, 24 hours
Experimental: as §1

## CCC[C@@H]1C[C@@H](C(=O)N[C@@H]([C@H]2O[C@H](SC)[C@H](O)[C@@H](O)[C@H]2O)[C@H](C)Cl)N(C)C1 [Clindamycin HCl, reference compound]
[1]
  MBEC: 0.6 μg/mL and (1) μM
IL-8
  IL-8 Protein % inhibition: 36%
IL-1b
  inhibition at 30 pM: 32%
IL-17
  inhibition at 30 pM: 89%
TNF-α
  TNFa-Protein % inhibition: 10%
CXCL8 (IL-8)
  inhibition at 30 pM: 0%
TNF (TNF-α)
  inhibition at 30 pM: 10%
IL1B (IL-1b)
  inhibition at 30 pM: 3%
IL17A (IL-17A)
  inhibition at 30 pM: 41%
